1 substance from PMC7717573 can be followed below.

The chains behind the UniProt entries cited, without tags or fusion partners. Where a name states a change or a piece, a line headed by the entry shows the natural chain unless it says otherwise.
UniProt P0C2J9, whole entry, looked up, stated change not applied: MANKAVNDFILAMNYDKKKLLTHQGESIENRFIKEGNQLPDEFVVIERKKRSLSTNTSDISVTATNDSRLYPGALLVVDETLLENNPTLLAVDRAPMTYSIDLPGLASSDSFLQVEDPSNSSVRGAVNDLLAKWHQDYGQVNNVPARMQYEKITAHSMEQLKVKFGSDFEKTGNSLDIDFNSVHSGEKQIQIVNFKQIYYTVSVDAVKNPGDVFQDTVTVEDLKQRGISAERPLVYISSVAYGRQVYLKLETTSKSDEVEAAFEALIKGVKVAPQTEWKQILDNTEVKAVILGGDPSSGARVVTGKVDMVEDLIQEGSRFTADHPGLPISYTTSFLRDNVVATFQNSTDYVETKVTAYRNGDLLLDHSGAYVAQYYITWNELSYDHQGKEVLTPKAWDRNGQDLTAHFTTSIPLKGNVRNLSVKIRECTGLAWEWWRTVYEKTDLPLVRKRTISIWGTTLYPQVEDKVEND

The target of assay [1] is non-hemolytic variant of pneumolysin (Ply-NH; allele 5) of serotype 1 ST306 (Streptococcus pneumoniae serotype 1 ST306 strain 01-1956) (UniProt P0C2J9). The assay is described as follows: SDS-PAGE of unboiled samples with immunoblot (SDS-resistant oligomers); purified Ply variant without cells, 5% SDS-PAGE, anti-Ply blot; both purified. For orientation: Immunoblotting shows a protein as a band on a membrane.

For assay [2] the target is unchanged. Briefly: negative-stain transmission electron microscopy; purified Ply (0.5 uM) incubated with cholesterol:POPC (50 mol% each) liposomes (2 mg/ml) at 37°C for 30 min, stained with 2% phosphotungstic acid; oligomeric rings on membranes; both purified.
For assay [3] the target is unchanged. The assay is described as follows: SDS-PAGE of unboiled samples with immunoblot (SDS-resistant oligomers); 10^6 A549 cells incubated with 0.5 ug Ply variant in PBS for 30 min at 37°C, 5% SDS-PAGE without boiling, anti-Ply blot; oligomers on cell membranes; both purified.

Results are given in words; binding and its absence hold for the method and conditions named. Some results given as binding are weak or reduced against the parent protein; the word gives no strength.

Turning to “non-hemolytic variant of pneumolysin (Ply-NH; allele 5) of serotype 1 ST306 (from UniProt P0C2J9 1-471)”, the binding entry in assay [1] is “no binding (condition: without cells)”; in assay [2], “binds”; in assay [3] it was “binds”.
